The experiment has as its system Salmonella enterica serovar Typhimurium SL1344. The experiment in a line: bacterial growth OD600 after 18 h with compound and polymyxin B; higher = more bacterial growth (less inhibition). The conditions noted are these: 50 µM, Mueller-Hinton broth.

This is one part of the list. Values are raw readings; no control value is given beside them.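 First-pass screen: polymyxin B was added at a level that permeabilizes the Salmonella outer membrane while sparing the inner membrane. DMSO wells, with and without polymyxin B, defined maximum growth. Because plates differed from one another, each plate's data were ranked separately and the compounds with the lowest OD600 were carried forward as hits.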

On to `O=C(CC(F)(F)F)N1CCc2onc(-c3cccc4ccccc34)c2C1`, for which the “bacterial growth OD600” value (polymyxin B 0.75 µg/mL) came to 0.356.

For the compound `NC(=O)[C@@H]1CCCN1c1ccc(-c2nc(Cc3ccc(F)cc3)no2)cn1`, the “bacterial growth OD600” value (polymyxin B 0.75 µg/mL) was 0.785.

Take `COCc1ccc(C(=O)Nc2ccc(-c3nc(CNC(=O)C(C)N4CCOCC4)c(C)o3)cc2)o1` (configuration not stated): the “bacterial growth OD600” value (polymyxin B 0.75 µg/mL) is 1.01.

`COc1cccc(CCNC2CCN(c3ccc(NC(=O)Cc4cccc(F)c4)cc3)CC2)c1`: where the note is “polymyxin B 0.75 µg/mL”, the “bacterial growth OD600” value was determined as 0.843.

`COc1cc(CN(Cc2ccncc2)C(=O)c2ccc(-c3ccccc3)cc2)ccc1OC1Cc2ccccc2C1`: under “polymyxin B 0.75 µg/mL”, the “bacterial growth OD600” value is 0.84.

Take `Cc1nn(C)cc1CN(C)c1ccc(C(=O)NCCC2CCCCN2C)cn1` (configuration not stated): under “polymyxin B 1 µg/mL”, the “bacterial growth OD600” value is 1.

With `Cc1cc(C)n(-c2ccc(NC(=O)C3CCCCN3CC3CC3)cc2)n1` (configuration not stated), the “bacterial growth OD600” value (polymyxin B 1 µg/mL) is 1.15.

Consider `O=C(NC1(c2ccccc2)CC1)c1cc(COc2ccc(F)c(F)c2)on1`, for which the “bacterial growth OD600” value (polymyxin B 1 µg/mL) was found to be 0.003.

For `CSc1ccccc1C(=O)NCc1c(C)ncc2c1CCN(C(=O)C13CC4CC(CC(C4)C1)C3)C2`, the “bacterial growth OD600” value (polymyxin B 0.75 µg/mL) was determined as 0.84.

Turning to `CCC(=O)N1CCCC(Nc2ccc(F)cc2)C1` (configuration not stated), the “bacterial growth OD600” value (polymyxin B 1 µg/mL) stood at 1.03.

Regarding `Cc1occc1C(=O)N(C)C(Cc1ccccc1F)C1CCN(C(=O)/C=C/c2cccc(F)c2)CC1` (configuration not stated), where the note is “polymyxin B 0.75 µg/mL”, the “bacterial growth OD600” value is 0.012.

As to `Cc1ccccc1CCC1CCCN(C(=O)Cn2cccn2)C1` (configuration not stated), the “bacterial growth OD600” value (polymyxin B 0.75 µg/mL) stood at 0.729.

On to `COCC(=O)N1CCC(Oc2ccc(C(=O)NC(C)c3nccs3)cc2)CC1` (configuration not stated), for which the “bacterial growth OD600” value (polymyxin B 1 µg/mL) is 0.846.

Consider `COc1cc(CN2CCCC(CNC(=O)c3ccc(F)cc3)C2)cc(Cl)c1O` (configuration not stated), for which the “bacterial growth OD600” value (polymyxin B 0.75 µg/mL) was 0.795.

As to `O=C(C1CC12CCCC2)N1CCc2onc(-c3cccc(F)c3)c2C1` (configuration not stated), the “bacterial growth OD600” value (polymyxin B 0.75 µg/mL) is 0.001.

Consider `CN(C(=O)CC(c1cccc(O)c1)c1cccc(Cl)c1)C1CCOCC1` (configuration not stated), for which the “bacterial growth OD600” value (polymyxin B 1 µg/mL) is 0.588.

As for `CCOc1ccc(CNC2CCCc3nc(-c4cccnc4)ncc32)cc1` (configuration not stated), where the note is “polymyxin B 1 µg/mL”, the “bacterial growth OD600” value came out at 0.858.

As to `Cc1ncccc1C(=O)N1CCCC(C(=O)c2ccc(-c3ccccc3)cc2)C1` (configuration not stated), the “bacterial growth OD600” value (polymyxin B 1 µg/mL) worked out at 0.009.

As to `Cc1ccc(Oc2ncccc2CNCc2ccccn2)c(F)c1F`, the “bacterial growth OD600” value (polymyxin B 0.75 µg/mL) was 0.537.

On to `COc1ccc(CCN2CC(C(=O)NCCCn3nc(C)cc3C)CCC2=O)cc1` (configuration not stated), for which, where the note is “polymyxin B 1 µg/mL”, the “bacterial growth OD600” value came out at 0.799.

Regarding `CCn1c(-c2ccccc2F)nc2cc(C(=O)NC(C)c3cn(C)nc3C)cc(NC(C)=O)c21` (configuration not stated), the “bacterial growth OD600” value (polymyxin B 0.75 µg/mL) amounted to 0.901.

`Cc1ccccc1-c1nc(CN(Cc2c(C)nn(C)c2C)C2CC2)c(C)o1`: the “bacterial growth OD600” value (polymyxin B 1 µg/mL) is 0.669.

Turning to `COc1cc(-c2nc(CN3CCCCC3CCNC(C)=O)c(C)o2)ccc1F` (configuration not stated), the “bacterial growth OD600” value (polymyxin B 0.75 µg/mL) stood at 0.623.

With `Cc1nccn1-c1ccc(NC(=O)C2CCCN2C(=O)C(C)(C)C)cc1` (configuration not stated), the “bacterial growth OD600” value (polymyxin B 1 µg/mL) came out at 1.02.

Turning to `COc1cc(CC2(CCC(=O)N3CCN(c4cccc(C)n4)CC3)CCC(=O)N2)ccc1F` (configuration not stated), the “bacterial growth OD600” value (polymyxin B 0.75 µg/mL) is 0.971.

Consider `O=C(NCC1CCCN(C(=O)C2CCC2)C1)c1ccc(F)cc1` (configuration not stated), for which the “bacterial growth OD600” value (polymyxin B 1 µg/mL) was found to be 0.919.

For the compound `C=C(C)CN(CC)C(=O)c1cc(COc2cc(C)c(Cl)c(C)c2)on1`, the “bacterial growth OD600” value (polymyxin B 0.75 µg/mL) was -0.001.

For `CC(C)c1cc(C(=O)N2CCOc3ccc(C(O)C(c4ccccc4)c4ccccc4)cc3C2)no1` (configuration not stated), under “polymyxin B 0.75 µg/mL”, the “bacterial growth OD600” value was 0.009.

Consider `CCOC(=O)C1(Cc2cccc(OC)c2)CCN(Cc2cccnc2)CC1`, for which the “bacterial growth OD600” value (polymyxin B 1 µg/mL) worked out at 0.747.

On to `COC(=O)CCCNc1nc(CN(C)C(C)c2cccs2)nc2ccccc12` (configuration not stated), for which the “bacterial growth OD600” value (polymyxin B 0.75 µg/mL) was 0.831.

For the compound `COC(=O)C1CCCCN1C(=O)c1c(OC)cc(=O)n2c1CCN(Cc1ccc(OC)cc1)CC2` (configuration not stated), under “polymyxin B 0.75 µg/mL”, the “bacterial growth OD600” value came out at 0.848.

In the case of `COc1ccccc1CCN1CCCC(CN(C)C(=O)COc2ccccc2)C1` (configuration not stated), the “bacterial growth OD600” value (polymyxin B 1 µg/mL) was 0.824.

Source of the values: the supplement of paper PMC12889115.
